The other results are listed elsewhere or left out.

From PMC12040169 (PLOS Biology, 2025) come the findings set out here.

The subject of the assay is T1, CTL2-GFP (C. trachomatis L2/434/Bu, GFP-expressing).
T1 construct: L2/434/Bu, GFP-expressing
Also on record: species or system HeLa; Intracellular C. trachomatis growth in HeLa cells, bulk GFP fluorescence relative to DMSO. Conditions: bulk GFP, single well; 28.5 h, 10 µM; inhibitor.
For the compound `O=C1NC(Nc2ccc(SCCN3CCOCC3)cc2)c2ccccc21` (stereo not shown) [CBK010123], the “% of control remaining” value is given as 125.811%.

As for `CC(C)C(=O)NC1CCN(C(=O)CCn2ccc3ccncc32)CC1` [CBK284730], the “% of control remaining” value turned out to be 74.4662%.

As for `CC(Oc1ccc(Cl)cc1Cl)C(=O)Nc1ccc(N2CCN(C)CC2)c(Cl)c1` (stereo not shown) [CBK268563], the “% of control remaining” value is reported as 138.622%.

As to `O=[N+]([O-])c1ccc(N2CCN(CCO)CC2)cc1NCc1ccc(Cl)cc1` [CBK042201], the “% of control remaining” value came out at 143.114%.

Take `O=C(NC(=S)Nc1ccc2[nH]c(=O)[nH]c2c1)c1ccc(OCc2ccccc2)cc1` [CBK268908]: the “% of control remaining” value is given as 134.896%.

`CN(C)C(=O)Cc1ccc(Cn2ccnc(N3CCC(Sc4ccccc4)CC3)c2=O)cc1` [CBK153652]: the “% of control remaining” value is given as 72.3915%.

Regarding `CC(=O)c1cccc(NC(=O)CN2CCCC2c2cccs2)c1` (stereo not shown) [CBK305143], the “% of control remaining” value worked out at 128.022%.

Consider `Nc1cc(O)nc(SCCN2CCN(c3ccc(C(F)(F)F)cc3[N+](=O)[O-])CC2)n1` [CBK265225], for which the “% of control remaining” value is on record as 100%.

Consider `Cc1cn(S(=O)(=O)c2ccc(Br)cc2)cn1` [CBK026488], for which the “% of control remaining” value came to 119.338%.

On to `COc1ccc(C2(CNC(=O)C(O)COc3ccccc3)CCCC2)cc1OC` (stereo not shown) [CBK014053], for which the “% of control remaining” value worked out at 152.697%.

In the case of `COc1ccc(S(=O)(=O)N2Cc3ccccc3CC2C(=O)Nc2sc3c(c2C#N)CCCC3)cc1` (stereo not shown) [CBK266363], the “% of control remaining” value worked out at 89.6915%.

In the case of `CCCn1c(SCC(=O)N2CCOCC2)nc2ccc(Br)cc2c1=O` [CBK305929], the “% of control remaining” value is on record as 124.017%.

Consider `CCc1nc2ccc(C(=O)N(C)Cc3ccco3)cn2c1N(C)Cc1cccs1` [CBK145552], for which the “% of control remaining” value worked out at 172.33%.

As to `Cc1cc(C(=O)Nc2ccc3ncccc3c2)ccc1Cl` [CBK159804], the “% of control remaining” value was 112.676%.

`O=C(c1c[nH]c(C(=O)N2CCN(c3ncccn3)CC2)c1)c1ccc(Cl)cc1Cl` [CBK107418]: the “% of control remaining” value stood at 108.505%.

With `O=C(Nc1cccc(-c2nnn[nH]2)c1)Nc1ccc(Cl)c(Cl)c1` [CBK155454], the “% of control remaining” value is listed as 120.346%.

`CCOC(=O)c1cn(CC2CC2)c2cc(F)c(F)cc2c1=O` [CBK304195]: the “% of control remaining” value amounted to 113.486%.

In the case of `COCCNC(=O)c1ccc(-c2ccc(OC)cc2)nc1N1CCN(C(=O)c2ccco2)CC1` [CBK106010], the “% of control remaining” value was 122.062%.

As for `CC(C)CC(CO)Nc1ncnc2ccc(S(C)(=O)=O)cc12` (stereo not shown) [CBK304203], the “% of control remaining” value was 112.287%.

Consider `O=C(CN1CCN(c2ccc(C(F)(F)F)cn2)CC1)Nc1ccc2c(c1)OCO2` [CBK074680], for which the “% of control remaining” value was found to be 119.418%.

In the case of `CC(=O)Nc1ccc(S(=O)(=O)NC2(C(F)(F)F)C(=O)Nc3c2c(=O)[nH]c(=S)n3C2CCCCC2)cc1` (stereo not shown) [CBK268683], the “% of control remaining” value turned out to be 113.418%.

As for `O=C(CCSc1ccc(Cl)cc1)Nc1ccc(S(=O)(=O)N2CCOCC2)cc1` [CBK264133], the “% of control remaining” value is reported as 100%.

`O=c1[nH]cc(-c2ccccc2)cc1CNc1ccccc1-n1ccnc1` [CBK284769]: the “% of control remaining” value is 87.3886%.

On to `Cc1cccc(C)c1N1CCN(CCn2c(=S)[nH]c3ccccc3c2=O)CC1` [CBK267998], for which the “% of control remaining” value worked out at 113.494%.

Take `CCC(C)NS(=O)(=O)c1ccc(OCC(=O)O)cc1` (stereo not shown) [CBK266521]: the “% of control remaining” value was 111.425%.

On to `O=C(O)c1ccsc1NS(=O)(=O)c1ccc(Oc2ccccc2)cc1` [CBK042259], for which the “% of control remaining” value turned out to be 159.06%.

`O=C(O)c1ccc(Cl)c(-c2ccc(/C=N/Nc3ccc([N+](=O)[O-])cc3)o2)c1` [CBK078331]: the “% of control remaining” value is listed as 121.061%.

In the case of `CCCCNC(=S)N[C@H]1CC[C@@]2(C3=CC=CC4C=CC=CC34)CCN(C)[C@H]2C1` (stereo partly shown) [CBK003610C], the “% of control remaining” value was 107.996%.

For `COc1nccnc1OC1CCN(Cc2ccc([N+](=O)[O-])cc2)CC1` [CBK084245], the “% of control remaining” value stood at 72.7607%.

Turning to `CC(C)C(=O)Nc1c(-c2ccccc2)cnc2ncccc12` [CBK083713], the “% of control remaining” value was 84.8673%.

As for `CCCCC(Sc1ccc2nnc(-c3ccccn3)n2n1)C(=O)O` (stereo not shown) [CBK287622], the “% of control remaining” value was determined as 186.119%.

As for `COc1ccccc1/C=C(/NC(=O)c1ccc(Cl)cc1Cl)C(=O)O` [CBK263998], the “% of control remaining” value amounted to 108.273%.

On to `O=C(Nc1cccc(Br)c1)/C(=C\c1cccnc1)NC(=O)c1ccccc1` [CBK261450], for which the “% of control remaining” value is 122.243%.

With `Cc1ccc(OCC(=O)NC(=S)Nc2cc(C(=O)O)ccc2C)cc1` [CBK265000], the “% of control remaining” value was 100%.

Regarding `CC(=O)c1ccccc1NC(=O)CSCC(=O)O` [CBK057752], the “% of control remaining” value came out at 129.387%.

In the case of `O=C(CC(CN1CCN(CCN2CCCC2)CC1)C(=O)O)Nc1ccccc1` (stereo not shown) [CBK286833], the “% of control remaining” value amounted to 120.207%.

For `COc1cnc(C(=O)NCc2ccccc2Cl)cc1O` [CBK287993], the “% of control remaining” value is on record as 140.478%.

On to `Cc1ccccc1CSCC(=O)NCCN1CCOCC1` [CBK269207], for which the “% of control remaining” value came out at 125.87%.

Consider `O=C(NCc1nnc(-c2cccs2)o1)C1(c2ccccc2)CC1` [CBK284635], for which the “% of control remaining” value amounted to 129.111%.

On to `O=C(Nc1c(F)cc(F)cc1OC1CCNCC1)c1cnccn1` [CBK050273T], for which the “% of control remaining” value was determined as 112.387%.

Regarding `CN1C[C@@H](C(=O)NC(C)(C)C)[C@@]2(CCc3ccccc3C(=O)N2)C1` [CBK284796], the “% of control remaining” value worked out at 135.189%.

In the case of `CC(C)NC(=O)N[C@H]1CCN2C(=O)N(c3cccc4nsnc34)C(=O)[C@@H]2C1` [CBK289539], the “% of control remaining” value is given as 86.4894%.

`CS(=O)(=O)c1ccc(CN2C[C@@H]3OCC(=O)N(Cc4ccc(F)cc4)[C@@H]3C2)cc1` [CBK289690]: the “% of control remaining” value came to 124.035%.

Turning to `Cc1cc(C[C@@H]2COC[C@H]2NCc2cccc(Cl)c2)on1` [CBK284885], the “% of control remaining” value amounted to 136.731%.

On to `Cc1nc2sc3c(c2c2nc(CCC(=O)O)nn12)CC(C)(C)OC3` [CBK269168], for which the “% of control remaining” value was found to be 134.072%.

As for `O=S(=O)(Nc1ccccc1O)c1ccc(OC(F)(F)F)cc1` [CBK043512], the “% of control remaining” value is recorded as 111.693%.

As for `CCc1nn2c(C3CCNCC3)ccnc2c1-c1cccs1` [CBK284226], the “% of control remaining” value is on record as 127.878%.

As for `COc1ncc(-c2nccnc2NCc2ccc(F)cc2)c(OC)n1` [CBK037668], the “% of control remaining” value was 216.225%.

As to `CCC(=O)N1CCCCC1c1nn(C)cc1-c1onc(C)c1C` (stereo not shown) [CBK283411], the “% of control remaining” value is 138.686%.

In the case of `CC(C)(C)C(=O)Nc1ccc(F)c(C(=O)N2CCc3[nH]ncc3C2)c1` [CBK305303], the “% of control remaining” value is listed as 140.889%.

Regarding `Cc1c(CNC2(c3ccccc3F)CCCC2)c(=O)n(C)c(=O)n1C` [CBK282986], the “% of control remaining” value is reported as 147.192%.

Take `Cc1c(C(=O)N(C)Cc2nc(C(F)(F)F)cs2)nnn1C1CCNCC1` [CBK304315C]: the “% of control remaining” value amounted to 118.064%.

Consider `CCNC(=S)N[C@@H]1CC[C@@]2(c3ccc([N+](=O)[O-])cc3)CCN(CCc3ccccc3)[C@H]2C1` [CBK004677], for which the “% of control remaining” value came out at 155.994%.

On to `Cc1ccc(-c2ccccc2)n1-c1ccc(O)c(C(=O)O)c1` [CBK116375], for which the “% of control remaining” value turned out to be 100%.

Take `COc1ccccc1OCCCN1C(=O)C2(CC(=O)N(C)C2=O)c2cc(F)ccc21` (stereo not shown) [CBK075430]: the “% of control remaining” value is recorded as 135.913%.

Consider `Nc1nonc1-c1nc2ccccc2n1CC(=O)NCc1ccccc1` [CBK264711], for which the “% of control remaining” value is on record as 100%.

Regarding `NC(=O)C1(N2CCCCC2)CCN(C(=O)CCCC(=O)O)CC1` [CBK286575], the “% of control remaining” value is on record as 106.637%.

As for `COc1ccc(-c2nc3ccccn3c2CN2CCC(C(=O)O)CC2)cc1` [CBK287052], the “% of control remaining” value stood at 131.335%.

Regarding `O=[N+]([O-])c1ccc(Cl)cc1N/N=C1\CN2CCC1CC2` [CBK217272], the “% of control remaining” value is recorded as 100%.

With `O=C(CSc1ncn(-c2ccccc2)n1)Nc1ccc2[nH]c(=O)[nH]c2c1` [CBK268212], the “% of control remaining” value worked out at 111.073%.

On to `Cn1c(=O)n(CC(=O)Nc2ccc(F)cc2)c2cccnc21` [CBK283919], for which the “% of control remaining” value came out at 130.353%.

For `O=C(O)c1ccc(Cl)c(S(=O)(=O)N2CCCC2C(=O)O)c1` (stereo not shown) [CBK265733], the “% of control remaining” value came to 143.712%.

As for `CN1CCC(N2CCN(C(=O)NCC3COc4ccccc4O3)CC2)CC1` (stereo not shown) [CBK155881], the “% of control remaining” value turned out to be 137.487%.

Turning to `Cc1ccc(Cl)c(OC(C)C(=O)N2CCCC(C(N)=O)C2)c1` (stereo not shown) [CBK304936], the “% of control remaining” value is listed as 106.756%.

Consider `O=C(NCCN1CCOCC1)c1cc(-c2cccc(Br)c2)nc2ccccc12` [CBK263625], for which the “% of control remaining” value is 122.732%.

Consider `CN1CCOc2cc(S(=O)(=O)Nc3nnn[nH]3)ccc21` [CBK062389], for which the “% of control remaining” value turned out to be 92.3926%.

With `CCS(=O)(=O)CCNC(=O)c1cnc(N2CCCCC2)nc1C` [CBK307715], the “% of control remaining” value is 103.004%.

Regarding `Cc1[nH]c2c(C)cccc2c1CC(=O)N(C)CCN(C)C` [CBK282724], the “% of control remaining” value is 119.703%.

As to `COc1ccc2c(c1)CCN=C2C[C@H]1CN(C(=O)C2CC2)CC[C@H]1CC(=O)O` [CBK289154], the “% of control remaining” value is listed as 112.976%.

In the case of `c1ccc2oc(-c3cncc(NCCc4c[nH]c5ccccc45)n3)cc2c1` [CBK066068], the “% of control remaining” value is listed as 149.631%.

With `C[C@@H]1c2c(C(=O)OC(C)(C)C)ncn2-c2ccc(F)cc2N1CC(=O)N1CCCC1` [CBK016704], the “% of control remaining” value came to 146.779%.

Take `O=C(Nc1cccc2ccccc12)/C(=C\c1ccco1)NC(=O)c1ccc(Br)cc1` [CBK264587]: the “% of control remaining” value is given as 102.696%.

On to `Cc1ccc(-c2nc(C3CCN(C(=O)NC(C)C)CC3)n3ccccc23)cc1` [CBK046861], for which the “% of control remaining” value is 119.693%.

`CCN1CCC[C@@H]1CNC(=O)c1cc(Cl)nc(OC)c1` [CBK174692]: the “% of control remaining” value is recorded as 126.619%.

In the case of `CC(C)C(=O)N1C[C@H]2CCc3nnc(-c4ccccc4)n3[C@H]2C1` [CBK283438], the “% of control remaining” value is given as 144.913%.

For the compound `O=C1c2ccccc2C(=O)N1c1ccc2nc(SCc3nc4ccccc4[nH]3)sc2c1` [CBK263368], the “% of control remaining” value came to 79.6371%.
